# B1: A2: murine anti-5T4 monoclonal antibody (IgG2b heavy chain); VH residues 19-135 of SEQ ID NO:6, VL residues 23-130 of SEQ ID NO:8 (antibody, listed as Mus musculus, V domains shown)
# VH: MEWRIFLFILSGTAGVHSQVQLQQSRPELVKPGASVKMSCKASGYTFTDYVISWVKQRTGQGLEWIGEIYPGSNSIYYNEKFKGRATLTADKSSSTAYMQLSSLTSEDSAVYFCAMGGNYGFDYWGQGTTLTVSS
# VL: MDFQVQIFSFLLISASVIMSRGQIVLTQSPAIMSASLGERVTLTCTASSSVNSNYLHWYQQKPGSSPKLWIYSTSNLASGVPARFSGSGSGTSYSLTISSMEAEDAATYYCHQYHRSPLTFGAGTKLELK
# modifications: (1)..(18) leader sequence; (19)..(135) heavy chain variable region; (44)..(53) CDR1; (68)..(84) CDR2; (117)..(124) CDR3; (1)..(22) leader sequence; (23)..(130) light chain variable region; (46)..(56) CDR1; (73)..(79) CDR2; (112)..(120) CDR3
# Tested on: human 5T4
# Assay: Epitope assignment on human 5T4 from the mapping studies (chimeras, mutations, BIACORE)
# Assay type: binding
molecule,measurement,setting,value
B1,residues of human 5T4 specifically bound,"as stated in the detailed description, Examples 4-5, FIGS. 6-7",224-355
same,region of human 5T4 bound (epitope),"from 5T4 chimera ELISA, Example 4",between residues 282 and 361
